Data source: PubChem BioAssay AID1259254 (NCATS, 2017)
Shown is a random part of about 59,000 deposited reagents. About 1,550 of them (2.6%) were called active. 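G2 share is only a proxy for re-replication; each gene was hit by three separate siRNAs, and active genes were retested.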 Reagents against one gene are numbered here. Not all columns of the deposit are shown. Not given: the amount of reagent.

Purpose: 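Genome-wide screen for genes that prevent DNA re-replication in cancer cells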 (primary screen)
Cell system: human HCT116 colorectal cancer cells
Reagents: single siRNA against human genes
Time to read-out: 3 days
Read-out: 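Nuclei stained with Hoechst and imaged; cell-cycle phase assigned by DNA content; G2 share scaled per plate, non-targeting siRNA 0%, GMNN siRNA 100%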
Scale: G2 robust z-score: higher = more G2 cells, more excess DNA replication
Call rule: 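An siRNA counts as active if its G2 robust z-score lies at least 5 MADs above the screen median; here such calls match roughly 38% of GMNN control or more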

LHX9 (GeneID 56956) #1 → G2 robust z-score = 0.598; Outcome = inactive
LHX9 (GeneID 56956) #2 → G2 robust z-score = -1.26; Outcome = inactive
LHX9 (GeneID 56956) #3 → G2 robust z-score = 0.427; Outcome = inactive
EEF1B2 (GeneID 1933) #1 → G2 robust z-score = -0.555; Outcome = inactive
EEF1B2 (GeneID 1933) #2 → G2 robust z-score = -0.953; Outcome = inactive
EEF1B2 (GeneID 1933) #3 → G2 robust z-score = -1.34; Outcome = inactive
ATP13A3 (GeneID 79572) #1 → G2 robust z-score = 0.469; Outcome = inactive
ATP13A3 (GeneID 79572) #2 → G2 robust z-score = -0.721; Outcome = inactive
ATP13A3 (GeneID 79572) #3 → G2 robust z-score = -0.55; Outcome = inactive
TMEM80 (GeneID 283232) #1 → G2 robust z-score = -0.264; Outcome = inactive
TMEM80 (GeneID 283232) #2 → G2 robust z-score = -0.136; Outcome = inactive
TMEM80 (GeneID 283232) #3 → G2 robust z-score = -0.123; Outcome = inactive
CD3E (GeneID 916) #1 → G2 robust z-score = 0.201; Outcome = inactive
CD3E (GeneID 916) #2 → G2 robust z-score = -0.841; Outcome = inactive
CD3E (GeneID 916) #3 → G2 robust z-score = 0.446; Outcome = inactive
JAKMIP1-DT (GeneID 285484) #1 → G2 robust z-score = -0.662; Outcome = inactive
JAKMIP1-DT (GeneID 285484) #2 → G2 robust z-score = 1.2; Outcome = inactive
JAKMIP1-DT (GeneID 285484) #3 → G2 robust z-score = -0.0629; Outcome = inactive
RAMP1 (GeneID 10267) #1 → G2 robust z-score = -0.262; Outcome = inactive
RAMP1 (GeneID 10267) #2 → G2 robust z-score = -0.52; Outcome = inactive
RAMP1 (GeneID 10267) #3 → G2 robust z-score = 0.409; Outcome = inactive
LEMD3 (GeneID 23592) #1 → G2 robust z-score = 2.29; Outcome = inactive
LEMD3 (GeneID 23592) #2 → G2 robust z-score = 0.601; Outcome = inactive
LEMD3 (GeneID 23592) #3 → G2 robust z-score = 0.466; Outcome = inactive

Part of the list above, reformatted:
JAKMIP1-DT (GeneID 285484) #3
- G2 robust z-score: -0.0629
- Outcome: inactive

RAMP1 (GeneID 10267) #1
- G2 robust z-score: -0.262
- Outcome: inactive

RAMP1 (GeneID 10267) #2
- G2 robust z-score: -0.52
- Outcome: inactive
